According to PubChem BioAssay AID1688 (National Center for Advancing Translational Sciences (NCATS), 2009):
The whole screen tested about 220,000 compounds, of which about 2,400 (1.1%) were called active. This list was built around the results that the source calls inconclusive (neither active nor inactive); the mix of calls is not that of the screen. Calls follow the shape of the dose curve; as a rule, active = well fitted inhibition curve with a large enough effect; inconclusive = small, poorly fitted or top-dose-only effect, or effect the other way; inactive = no such curve, though single readings can be large or run the other way. Potencies of inconclusive entries are doubtful fits and often do not repeat.

Assay: qHTS Multiplex Assay to Identify Dual Action Probes in a Cell Model of Huntington: Aggregate Formation (GFP); also: nearly all actives have a fitted effect of over 60% in size
Conditions: PC12 HttQ103-GFP aggregates, Acumen cytometry, 40 h; activity change, negative = inhibition: at 46.1 µM (top of the series) unless noted
Outline: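 Quantitative HTS on tebufenozide-induced (100 nM) PC12 cells stably expressing polyQ103 Huntingtin exon 1–GFP. Reduction of bright GFP aggregates, detected by laser scanning cytometry after lysis, identified actives across the titration.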
% is scaled to controls: 0 for no effect and ±100 for the full control effect; potency is read from the fitted curve at half-maximal effect.

Row | Compound | Potency | activity change, negative = inhibition
1 | Cc1cc(-c2ccccc2)nc(N(C)NC(=O)c2cccc(C(F)(F)F)c2)c1S(C)(=O)=O | inconclusive: 1.26 µM [activator, partial curve] | –
2 | COc1ccc(CCNc2oc(COc3ccccc3F)nc2C#N)cc1OC | inconclusive: 35.5 µM [inhibitor, single point] | –
3 | Cc1cc(S(=O)(=O)NCc2ccccc2)ccc1OCC(=O)NCC1CCCO1 (centres undefined) | inconclusive: 0.562 µM [activator, full curve, poor fit] | –
4 | O=C1C(C2=NC(c3ccccn3)C3C(=O)N(c4ccccc4)C(=O)C23)=C(O)c2ccccc21 (centres undefined) | – | inactive: -19.9% [at 9.22 µM]
5 | COc1ccc(NCc2ccc([N+](=O)[O-])s2)c(OC)c1 | inconclusive: 35.5 µM [inhibitor, single point] | –
6 | Cc1ccc(C)c(OCCN2C(=O)NC3(CCc4ccccc4C3)C2=O)c1 (centres undefined) | inconclusive: 7.08 µM [inhibitor, partial curve] | –
7 | Cc1cnc(NC(=O)COc2cccc3c2OC(C)(C)C3)s1 | inactive | –
8 | COc1ccc(C(=O)/C=C/c2ccc(OC(=O)c3cc(OC)c(OC)c(OC)c3)cc2)cc1 | inactive | –
9 | C=CCc1cc(/C=C/c2nc(O)c([N+](=O)[O-])c(=O)[nH]2)cc(OC)c1O | inactive | –
10 | COc1ccc(NC(=O)CSc2ccc3c4c(cccc24)C(=O)c2ccccc2-3)cc1 | inconclusive: 5.62 µM [inhibitor, full curve] | –
11 | Cc1ccc(C(=O)N2CC(=O)Nc3ccc(F)cc3C2c2ccccc2)cc1[N+](=O)[O-] (centres undefined) | inconclusive: 35.5 µM [inhibitor, single point] | –
12 | CC1CCN(CCCNC(=O)c2ccc3c(=O)n(Cc4ccc(Cl)cc4)c(=S)[nH]c3c2)CC1 | inconclusive: 31.6 µM [inhibitor, single point] | –
13 | N#Cc1c(SCc2ccccc2)nc(N2CCOCC2)c2c1CCCC2 | inconclusive: 35.5 µM [inhibitor, single point] | –
14 | N/C(=N\OC(=O)Cc1cccc2ccccc12)c1ccccn1 | inconclusive: 17.8 µM [inhibitor, single point] | –
15 | CC(C)(C)c1ccc(OCc2ccc(C(=O)N/N=C3\CC4CC=CC34)cc2)cc1 (centres undefined) | inactive | –
16 | CCN(CC)CC(=O)NC12CC3CC(CC(C3)C1)C2 | inactive | –
17 | C(#Cc1ccccc1)C[N+]1(CC#Cc2cccc3ccccc23)CCCC1 | inconclusive: 15.8 µM [inhibitor, single point] | –
18 | Cc1onc(-c2ccccc2)c1C(=O)c1c[nH]c(C(=O)NCc2ccccn2)c1 | inconclusive: 22.4 µM [inhibitor, single point] | –
19 | O=C1C2C3C=CC(CNS(=O)(=O)c4ccccc4[N+](=O)[O-])(O3)C2C(=O)N1c1ccccc1 (centres undefined) | inconclusive: 15.8 µM [inhibitor, single point] | –
20 | CCOc1ccc(N2C(=O)/C(=C\c3ccccc3OC)S(=O)(=O)C2c2cccc([N+](=O)[O-])c2)cc1 (centres undefined) | inconclusive: 1.26 µM [inhibitor, single point] | –
21 | O/N=C/c1ccccc1Oc1ccc(Cl)cc1 | inconclusive: 12.6 µM [inhibitor, partial curve] | –
22 | O=C1OC(c2ccccc2)=C/C1=C\N1CCOCC1 | inconclusive: 5.01 µM [activator, partial curve, poor fit] | –

Row | Compound | Potency | activity change, negative = inhibition
23 | CC1CCCC/C1=N\NC(=S)NCCc1ccccc1 (centres undefined) | inconclusive: 4.47 µM [inhibitor, single point] | –
24 | CC(C)(CCl)C(=O)Nc1ccc(Sc2ccc(F)cc2)cc1 | inconclusive: 12.6 µM [inhibitor, single point] | –
25 | O=C(Nc1ccc(F)c(Cl)c1)C1CCN(S(=O)(=O)c2cccnc2)CC1 | inconclusive: 35.5 µM [inhibitor, single point] | –
26 | COc1ccc2c(c1)Cc1sc(NC(=O)c3ccccc3)nc1-2 | inactive | –
27 | CCN(CC)c1ccc(NC(=O)CCS(=O)(=O)c2cccc3nsnc23)c(C)c1 | inactive | –
28 | C1=C(CCNc2nnnn2-c2ccccc2)CCCC1 | inconclusive: 22.4 µM [inhibitor, single point] | –
29 | CCC(C)C(=O)Nc1nc(C)c(-c2csc(Nc3ccccc3OC)n2)s1 (centres undefined) | inconclusive: 12.6 µM [inhibitor, single point] | –
30 | CC(=O)Nc1cccc(Oc2cc(C#N)c(C#N)cc2N2CCCCCC2)c1 | inconclusive: 22.4 µM [inhibitor, single point] | –
31 | COCCOC(=O)C1=C(C)OC(N)=C(C#N)C1c1ccco1 (centres undefined) | inconclusive: 20 µM [activator, single point] | –
32 | Cc1cccc(NC(=O)CSc2nnc(-c3ccccc3C)o2)c1 | active: 0.0028 µM | –
33 | CCOC(=O)c1c(NC(=O)CN2CCN(C(=O)c3ccco3)CC2)sc2c1CCCC2 | active: 25.1 µM | –
34 | CC(C)(C)C1CCc2[nH]nc(C(=O)O)c2C1 (centres undefined) | inactive | –
35 | CCOc1ccc(CNc2cccc(SC)c2)cc1 | – | inactive: -0.848% [at 9.22 µM]
36 | Cc1ccc(-c2nn(-c3ccccc3)cc2/C=N/NC(=O)c2ccc3c(c2)OCO3)cc1 | inconclusive: 22.4 µM [inhibitor, single point] | –
37 | O=[N+]([O-])c1ccc(N2CCCCC2)c(Cl)c1N1CCCCC1 | inactive | –
38 | Cc1c(CN(C)C(=O)/C=C/c2ccc([N+](=O)[O-])cc2)cnn1C | inactive | –
39 | CC(=O)c1cccc(NC(=S)NC(=O)c2ccc(Br)cc2)c1 | inactive | –
40 | O=S(=O)(c1ccc(OCC(O)CN2CCN(c3ccccc3O)CC2)cc1)N1CCOCC1 (centres undefined) | inconclusive: 7.94 µM [inhibitor, partial curve] | –
41 | Cc1ccc(S(=O)(=O)N(Cc2ccc(Cl)cc2)c2ccccc2C(=O)NCc2cccnc2)cc1 | inconclusive: 35.5 µM [inhibitor, single point] | –
42 | O=Cc1ccc(-c2ccc(F)cc2)o1 | inactive | –
43 | COc1cc(OC)c(OC)cc1CNC1CCCCCC1 | inconclusive: 2.51 µM [inhibitor, partial curve] | –
44 | CCOC(=O)c1sc(NC(=O)Nc2cccc(Cl)c2)cc1C | inconclusive: 14.1 µM [inhibitor, single point] | –

From no. 31 to 32, as listed above:
Row | Compound | Potency | activity change, negative = inhibition
31 | COCCOC(=O)C1=C(C)OC(N)=C(C#N)C1c1ccco1 (centres undefined) | inconclusive: 20 µM [activator, single point] | –
32 | Cc1cccc(NC(=O)CSc2nnc(-c3ccccc3C)o2)c1 | active: 0.0028 µM | –
